# Experimental data published in publication PMC7707522.
# Amino acid sequences for entries named in this document (tags omitted).
# UniProt P03146: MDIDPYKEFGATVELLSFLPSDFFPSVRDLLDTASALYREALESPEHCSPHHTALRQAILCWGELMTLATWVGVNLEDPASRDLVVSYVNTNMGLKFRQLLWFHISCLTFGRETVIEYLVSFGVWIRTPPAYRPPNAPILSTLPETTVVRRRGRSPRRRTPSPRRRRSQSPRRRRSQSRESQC
# UniProt P38159: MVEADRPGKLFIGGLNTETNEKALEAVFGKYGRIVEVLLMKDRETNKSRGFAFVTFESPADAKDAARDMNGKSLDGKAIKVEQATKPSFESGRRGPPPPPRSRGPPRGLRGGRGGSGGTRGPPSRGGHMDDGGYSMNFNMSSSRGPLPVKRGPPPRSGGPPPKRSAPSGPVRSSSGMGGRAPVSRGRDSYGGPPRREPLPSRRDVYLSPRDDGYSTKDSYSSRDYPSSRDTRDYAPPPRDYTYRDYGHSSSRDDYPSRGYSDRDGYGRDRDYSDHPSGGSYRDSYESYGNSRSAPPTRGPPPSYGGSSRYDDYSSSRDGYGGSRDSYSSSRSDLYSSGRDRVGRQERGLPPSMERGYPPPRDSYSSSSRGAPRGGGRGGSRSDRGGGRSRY
# UniProt P62995: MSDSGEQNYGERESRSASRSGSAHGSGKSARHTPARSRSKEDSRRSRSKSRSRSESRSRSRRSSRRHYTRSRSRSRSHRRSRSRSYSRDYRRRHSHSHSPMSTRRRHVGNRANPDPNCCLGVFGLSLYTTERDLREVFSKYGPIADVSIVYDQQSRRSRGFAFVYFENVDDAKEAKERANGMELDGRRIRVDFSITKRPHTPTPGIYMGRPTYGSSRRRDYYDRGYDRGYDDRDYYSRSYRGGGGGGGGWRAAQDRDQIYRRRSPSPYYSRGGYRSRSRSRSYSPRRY
# UniProt Q07955: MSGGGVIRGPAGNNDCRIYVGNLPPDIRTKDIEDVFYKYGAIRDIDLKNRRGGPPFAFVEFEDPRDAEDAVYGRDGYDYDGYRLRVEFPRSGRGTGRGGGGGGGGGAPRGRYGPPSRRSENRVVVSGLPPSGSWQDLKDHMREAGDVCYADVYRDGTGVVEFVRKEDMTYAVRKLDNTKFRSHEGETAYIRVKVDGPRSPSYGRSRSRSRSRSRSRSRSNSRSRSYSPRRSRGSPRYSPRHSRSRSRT
# Results are given in words; binding and its absence hold for the method and conditions named. Binding seen in cells or lysates may run through a third protein. A yes stands for co-enrichment or nearness to the bait. Other partners may have been found.
# B1: SRSF5 (protein, UniProt Q13243 1-272)
# chain: MSGCRVFIGRLNPAAREKDVERFFKGYGRIRDIDLKRGFGFVEFEDPRDADDAVYELDGKELCSERVTIEHARARSRGGRGRGRYSDRFSSRRPRNDRRNAPPVRTENRLIVENLSSRVSWQDLKDFMRQAGEVTFADAHRPKLNEGVVEFASYGDLKNAIEKLSGKEINGRKIKLIEGSKRHSRSRSRSRSRTRSSSRSRSRSRSRSRKSYSRSRSRSRSRSRSKSRSVSRSPVPEKSQKRGSSSRSKSPASVDRQRSRSRSRSRSVDSGN
# Molecular target: HBV core protein (HBc) fused at its N-terminus to a streptavidin (ST)-binding peptide (Hepatitis B virus) (UniProt P03146)
# Assay: affinity purification with mass spectrometry; ST-HBc complexes purified from nuclear extracts of dHepaRG-TR-ST-HBc cells on Strep-Tactin gravity columns, eluted with desthiobiotin; extracts with or without Benzonase digestion (40 min on ice); control: cells with untagged wt HBc; label-free quantitative MS, three purifications for each …
row,Molecule,binding
1,RBMX (from UniProt P38159 1-391),binds
2,TRA2B (from UniProt P62995 1-288),binds
3,SRSF1 (from UniProt Q07955 1-248),binds
4,B1,binds
